Data published in article PMC4617596.
Numbering of substitutions follows the chain as printed. Names and notes keep the numbering of the source. No constants are given. Whether binding was seen depends on the method and setting. In cells and extracts the contact can be indirect. Some binding calls cover weakened binding; strength is not graded here. Sequences can lack the tags named with a protein.

Chains of the proteins cited; added tags and fusions are not shown.
UniProt P27546: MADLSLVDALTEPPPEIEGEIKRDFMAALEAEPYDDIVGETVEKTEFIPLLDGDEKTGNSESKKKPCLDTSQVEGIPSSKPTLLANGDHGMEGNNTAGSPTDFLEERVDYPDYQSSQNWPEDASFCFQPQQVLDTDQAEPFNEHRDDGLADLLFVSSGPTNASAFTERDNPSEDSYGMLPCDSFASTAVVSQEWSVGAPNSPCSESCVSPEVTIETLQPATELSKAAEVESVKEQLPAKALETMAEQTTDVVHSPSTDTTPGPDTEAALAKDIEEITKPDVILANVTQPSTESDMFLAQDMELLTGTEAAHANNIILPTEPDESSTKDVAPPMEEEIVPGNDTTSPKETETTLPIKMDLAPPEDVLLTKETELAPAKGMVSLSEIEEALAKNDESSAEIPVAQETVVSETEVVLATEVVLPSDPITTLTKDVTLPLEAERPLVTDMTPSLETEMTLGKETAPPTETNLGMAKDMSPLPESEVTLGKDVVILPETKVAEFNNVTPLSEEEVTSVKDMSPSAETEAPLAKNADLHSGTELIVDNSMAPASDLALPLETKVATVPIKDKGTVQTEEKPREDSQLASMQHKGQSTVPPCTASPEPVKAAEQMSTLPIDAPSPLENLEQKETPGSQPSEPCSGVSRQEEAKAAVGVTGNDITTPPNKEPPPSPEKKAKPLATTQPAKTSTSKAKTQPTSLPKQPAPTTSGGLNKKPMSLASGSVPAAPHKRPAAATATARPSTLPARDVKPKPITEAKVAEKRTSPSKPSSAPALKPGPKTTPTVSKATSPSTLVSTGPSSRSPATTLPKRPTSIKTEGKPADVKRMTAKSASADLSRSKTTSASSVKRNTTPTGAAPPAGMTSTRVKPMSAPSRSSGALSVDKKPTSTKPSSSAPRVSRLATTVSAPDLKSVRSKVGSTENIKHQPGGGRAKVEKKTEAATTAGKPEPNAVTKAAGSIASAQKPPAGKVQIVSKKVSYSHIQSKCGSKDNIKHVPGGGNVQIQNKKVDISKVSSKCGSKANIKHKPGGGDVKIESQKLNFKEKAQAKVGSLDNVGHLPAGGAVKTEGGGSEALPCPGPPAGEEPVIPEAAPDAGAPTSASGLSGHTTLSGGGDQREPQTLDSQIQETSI
UniProt Q61025: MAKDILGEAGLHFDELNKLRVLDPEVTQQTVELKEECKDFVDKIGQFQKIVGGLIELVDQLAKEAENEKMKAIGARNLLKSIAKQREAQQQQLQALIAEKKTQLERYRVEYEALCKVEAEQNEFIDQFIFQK

B1: Flag-tagged MmIFT54 WT (protein, UniProt Q149C2 1-625)
chain: MNAAVVRRTQEALGKVIRRPPLTEKLLNKPPFRYLHDIITEVIRITGFMKGLYTDAEMKSENVKDKDAKISFLQKAIDVVMMVSGEPLAAKPARIVAGHEPERTNELLQLIGKCCLSKLSSDEAVKRVLAGDKGDSRGRAQRTSKAQEPNNKSGKEEESRIHKEDKRSSEAKERSASAEHKQKEELKEDSKPREKERDKEKAKEADRDRHRDPDRDRNRDGEREKARARAKDRDRNNRDRDREAERDRERDRRSEGGKEKERVKDRDRDRDKGRDRERRKSKNGEHTRDPDREKSRDADKPEKKSSSSGEISRKLSDGSFKDVKAEMEADISVGASRSSTLKPSKRRSKHSLEGDSPSDAEVEAGPAGQDKPEVMENAEVPSELPSSLRRIPRPGSARPAPPRVKRQESTETLVVDRSGSGKTVSSVIIDSQNSDNEDDEQFVVEAAPQLSEIADIDMVPSGELEDEEKHGGLVKKILETKKDYEKLQQSLKPGEKERSLIFESAWKKEKDIVSKEIEKLRVSIQTLCKSALPLGKIMDYIQEDVDAMQNELQLWHSENRQHAEALSQEQSITDSAVEPLKAELSELEQQIRDQQDKICAVKANILKNEEKIQKMVHSINLSSRR
B2: Flag-tagged MmIFT54 p.K155* (domain or fragment, UniProt Q149C2 1-154)
chain: MNAAVVRRTQEALGKVIRRPPLTEKLLNKPPFRYLHDIITEVIRITGFMKGLYTDAEMKSENVKDKDAKISFLQKAIDVVMMVSGEPLAAKPARIVAGHEPERTNELLQLIGKCCLSKLSSDEAVKRVLAGDKGDSRGRAQRTSKAQEPNNKSG
B3: Flag-tagged MmIFT54 p.I453R (protein, UniProt Q149C2 1-625)
chain: B1 chain with I453R

Legend:
[1] = molecular target: GFP-MmMap4 (mouse (Mm (so in the source))) (UniProt P27546); experiment: co-IP; HEK293T cells co-expressing Flag-MmIFT54 constructs and GFP-MAP4; lysis in 50 mM Tris-HCl pH 7.5, 150 mM NaCl, 0.5% Triton; precleared lysates immunoprecipitated with anti-GFP antibody on G-protein beads, 3 h at 4 °C; washes with increasing NaCl; western blot with GFP and Flag antibodies
[2] = molecular target: GFP-MmIft20 (mouse (Mm (so in the source))) (UniProt Q61025); experiment: co-IP; HEK293T cells co-transfected with Flag-MmTraf3ip1 constructs and GFP-MmIft20; lysis in 50 mM Tris-HCl pH 7.5, 150 mM NaCl, 0.5% Triton; immunoprecipitation with anti-Flag or anti-GFP antibodies on G-protein beads (which one is not told for this pair), 3 h at 4 °C; washes with increasing NaCl

| Binder | binding [1] | binding [2] |
| --- | --- | --- |
| B1 | binds | binds |
| B2 | binds | – |
| B3 | binds | binds |
